{"source": "patent US20060029603A1", "binders": {"B1": {"name": "H15L16 (antibody, human IgG1, kappa, V domains shown)", "VH": "QVQLVQSGAEVVKPGASVKLSCKASGYTFTSYWMHWVKQRPGQGLEWIGNINPSNGGTNYNEKFKSKATLTVDTSSSTAYMELSSLRSEDSAVYYCELGQGYWGQGTLVTVSS", "VL": "DIVMTQSPLSNPVTLGQPVSISCRSSKSLLYKDGKTYLNWFLQRPGQSPQLLIYLMSTRASGVPDRFSGGGSGTDFTLKISRVEAEDVGVYYCQQLVEYPLTFGQGTKLEIKR"}, "B2": {"name": "H14L13 (antibody, human IgG1, kappa, V domains shown)", "VH": "B1 VH with R40A, K67R, V72R, S76T, S91T", "VL": "B1 VL with N11L, V19A, L42Q"}, "B3": {"name": "H15L13 (antibody, human IgG1, kappa, V domains shown)", "VH": "B1 VH", "VL": "B1 VL with N11L, V19A, L42Q"}, "B4": {"name": "H18L13 (antibody, human IgG1, kappa, V domains shown)", "VH": "B1 VH with T74K", "VL": "B1 VL with N11L, V19A, L42Q"}, "B5": {"name": "H6L13 (antibody, human IgG1, kappa, V domains shown)", "VH": "B1 VH with V12K, L20V, K38R, R40A, K67R, L70M, V72R, S76T, S91T", "VL": "B1 VL with N11L, V19A, L42Q"}, "B6": {"name": "H18L16 (antibody, human IgG1, kappa, V domains shown)", "VH": "B1 VH with T74K", "VL": "B1 VL"}, "B7": {"name": "H1L11 (antibody, human IgG1, kappa, V domains shown)", "VH": "QVQLVQSGAEVKKPGASVKVSCKASGYTFTSYWMHWVRQAPGQGLEWMGNINPSNGGTNYNEKFKSRVTMTRDTSTSTVYMELSSLRSEDTAVYYCELGQGYWGQGTLVTVSS", "VL": "B1 VL with M4I, N11L, V19A, L42Q"}, "B8": {"name": "H18L17 (antibody, V domains shown)", "VH": "B1 VH with T74K", "VL": "B1 VL with S7D, N11L, V19A, L42Q, P64S, G70S"}, "B9": {"name": "H18L18 (antibody, human IgG1, kappa, V domains shown)", "VH": "B1 VH with T74K", "VL": "B1 VL with S7D, P64S, G70S"}, "B10": {"name": "H14L16 (antibody, human IgG1, kappa, V domains shown)", "VH": "B1 VH with R40A, K67R, V72R, S76T, S91T", "VL": "B1 VL"}, "B11": {"name": "H16L17 (antibody, V domains shown)", "VH": "B1 VH with V12K, L20V, T74K, S76T, S91T", "VL": "B1 VL with S7D, N11L, V19A, L42Q, P64S, G70S"}, "B12": {"name": "H14L17 (antibody, V domains shown)", "VH": "B1 VH with R40A, K67R, V72R, S76T, S91T", "VL": "B1 VL with S7D, N11L, V19A, L42Q, P64S, G70S"}, "B13": {"name": "H14L18 (antibody, human IgG1, kappa, V domains shown)", "VH": "B1 VH with R40A, K67R, V72R, S76T, S91T", "VL": "B1 VL with S7D, P64S, G70S"}, "B14": {"name": "H6L17 (antibody, human IgG1, kappa, V domains shown)", "VH": "B7 VH with M48I, V68A, V79A", "VL": "B1 VL with S7D, N11L, V19A, L42Q, P64S, G70S"}, "B15": {"name": "H6L18 (antibody, human IgG1, kappa, V domains shown)", "VH": "B7 VH with M48I, V68A, V79A", "VL": "B1 VL with S7D, P64S, G70S"}, "B16": {"name": "H6L15 (antibody, human IgG1, kappa, V domains shown)", "VH": "B7 VH with M48I, V68A, V79A", "VL": "B1 VL with N11L, V19A, P64S"}, "B17": {"name": "H15L17 (antibody, V domains shown)", "VH": "B1 VH", "VL": "B1 VL with S7D, N11L, V19A, L42Q, P64S, G70S"}, "B18": {"name": "H15L18 (antibody, human IgG1, kappa, V domains shown)", "VH": "B1 VH", "VL": "B1 VL with S7D, P64S, G70S"}}, "key": {"[1]": {"molecular_target": "GST-human NOGO-A56 (human) [GST: P08515]", "experiment": "ELISA, coated GST-human NOGO-A56, transfection supernatant, anti-human kappa-HRP, OD 490 nm"}, "[2]": {"molecular_target": "GST-human NOGO-A56 (human) [GST: P08515]", "experiment": "ELISA, coated GST-human NOGO-A56, purified antibody, anti-human kappa-HRP, OD 490 nm"}, "[3]": {"molecular_target": "GST-human NOGO-A56 (human) [GST: P08515]", "experiment": "ELISA, GST-human NOGO-A56 coated; small scale transient supernatants in triplicate"}}, "note": "Numbering of substitutions follows the chain as printed. These are yes or no findings as the source states them, for the method shown. Some binding calls cover weakened binding; strength is not graded here."}
{"binder": "B1", "values": [{"measurement": "binding", "setting": "[1]", "value": "binds"}]}
{"binder": "B2", "values": [{"measurement": "binding", "setting": "[1]", "value": "binds"}]}
{"binder": "B3", "values": [{"measurement": "binding", "setting": "[1]", "value": "binds"}]}
{"binder": "B4", "values": [{"measurement": "binding", "setting": "[1]", "value": "binds"}]}
{"binder": "B5", "values": [{"measurement": "binding", "setting": "[2]", "value": "binds"}, {"measurement": "binding", "setting": "[1]", "value": "binds"}]}
{"binder": "B6", "values": [{"measurement": "binding", "setting": "[2]", "value": "binds"}, {"measurement": "binding", "setting": "[3]", "value": "binds"}, {"measurement": "binding", "setting": "[1]", "value": "binds"}]}
{"binder": "B7", "values": [{"measurement": "binding", "setting": "[1]", "value": "binds"}]}
{"binder": "B8", "values": [{"measurement": "binding", "setting": "[1]", "value": "binds"}]}
{"binder": "B9", "values": [{"measurement": "binding", "setting": "[1]", "value": "binds"}]}
{"binder": "B10", "values": [{"measurement": "binding", "setting": "[1]", "value": "binds"}]}
{"binder": "B11", "values": [{"measurement": "binding", "setting": "[1]", "value": "binds"}]}
{"binder": "B12", "values": [{"measurement": "binding", "setting": "[1]", "value": "binds"}]}
{"binder": "B13", "values": [{"measurement": "binding", "setting": "[1]", "value": "binds"}]}
{"binder": "B14", "values": [{"measurement": "binding", "setting": "[1]", "value": "binds"}]}
{"binder": "B15", "values": [{"measurement": "binding", "setting": "[1]", "value": "binds"}]}
{"binder": "B16", "values": [{"measurement": "binding", "setting": "[1]", "value": "binds"}]}
{"binder": "B17", "values": [{"measurement": "binding", "setting": "[1]", "value": "binds"}]}
{"binder": "B18", "values": [{"measurement": "binding", "setting": "[1]", "value": "binds"}]}
